The values that follow come from article PMC9726878.

Results are given in words; binding and its absence hold for the method and conditions named. In cells and extracts the contact can be indirect. Some entries that bind do so weakly or less than the wild type. Sequences can lack the tags named with a protein.

The target of the experiment is Myc-HIF1α, Q16665. Description: co-IP; Flag-RBCK1 and Myc-HIF1α (full length or deletion mutants) co-transfected in HEK293T; lysate incubated with the required antibody or control IgG and protein A/G agarose at 4 °C overnight; blots with anti-Myc and anti-Flag; for the deletion mutants MG132 for 6 h before lysis. The note with it: remark: other sources report otherwise.

B1: Flag-RBCK1, Q9BYM8-1 1-510 (protein)
chain: MDEKTKKAEEMALSLTRAVAGGDEQVAMKCAIWLAEQRVPLSVQLKPEVSPTQDIRLWVSVEDAQMHTVTIWLTVRPDMTVASLKDMVFLDYGFPPVLQQWVIGQRLARDQETLHSHGVRQNGDSAYLYLLSARNTSLNPQELQRERQLRMLEDLGFKDLTLQPRGPLEPGPPKPGVPQEPGRGQPDAVPEPPPVGWQCPGCTFINKPTRPGCEMCCRARPEAYQVPASYQPDEEERARLAGEEEALRQYQQRKQQQQEGNYLQHVQLDQRSLVLNTEPAECPVCYSVLAPGEAVVLRECLHTFCRECLQGTIRNSQEAEVSCPFIDNTYSCSGKLLEREIKALLTPEDYQRFLDLGISIAENRSAFSYHCKTPDCKGWCFFEDDVNEFTCPVCFHVNCLLCKAIHEQMNCKEYQEDLALRAQNDVAARQTTEMLKVMLQQGEAMRCPQCQIVVQKKDGCDWIRCTVCHTEICWVTKGPRWGPGGPGDTSGGCRCRVNGIPCHPSCQNCH
Regarding B1, the binding result is on record as “binds”.
